Laboratory results: publication doi:10.1101/2025.05.22.655396
These are yes or no findings as the source states them, for the method shown. In cells and extracts the contact can be indirect. Some results given as binding are weak or reduced against the parent protein; the word gives no strength.

The chains behind the UniProt entries cited, without tags or fusion partners.
UniProt Q07820: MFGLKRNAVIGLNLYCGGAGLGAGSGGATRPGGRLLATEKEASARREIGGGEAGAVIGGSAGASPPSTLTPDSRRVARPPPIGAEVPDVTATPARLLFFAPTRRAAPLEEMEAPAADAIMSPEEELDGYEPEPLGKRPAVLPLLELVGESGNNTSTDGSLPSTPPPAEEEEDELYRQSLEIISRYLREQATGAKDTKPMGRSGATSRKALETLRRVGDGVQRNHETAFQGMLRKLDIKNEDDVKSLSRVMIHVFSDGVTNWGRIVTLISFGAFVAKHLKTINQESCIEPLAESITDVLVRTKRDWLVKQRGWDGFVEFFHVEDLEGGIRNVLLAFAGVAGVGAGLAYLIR
UniProt Q7Z5L9: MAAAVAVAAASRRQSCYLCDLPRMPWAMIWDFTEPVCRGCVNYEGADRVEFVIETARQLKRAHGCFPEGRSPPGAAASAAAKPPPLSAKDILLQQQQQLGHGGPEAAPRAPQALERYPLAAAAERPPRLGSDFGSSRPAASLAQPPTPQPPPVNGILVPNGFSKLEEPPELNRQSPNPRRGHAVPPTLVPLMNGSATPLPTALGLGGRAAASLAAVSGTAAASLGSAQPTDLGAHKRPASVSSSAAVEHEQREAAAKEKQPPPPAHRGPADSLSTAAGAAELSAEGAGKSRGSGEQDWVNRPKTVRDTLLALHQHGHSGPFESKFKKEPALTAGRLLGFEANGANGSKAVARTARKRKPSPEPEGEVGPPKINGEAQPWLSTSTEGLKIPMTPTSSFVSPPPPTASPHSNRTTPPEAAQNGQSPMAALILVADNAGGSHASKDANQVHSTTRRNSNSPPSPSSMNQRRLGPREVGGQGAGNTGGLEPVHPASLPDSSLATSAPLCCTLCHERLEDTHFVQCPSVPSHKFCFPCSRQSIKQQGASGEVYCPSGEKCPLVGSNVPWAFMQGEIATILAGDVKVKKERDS

Molecular target: MCL1 (human (endogenous in primary AML cells)) (UniProt Q07820)
Assay: co-IP

binding: binds
Substance: Interferon Regulatory Factor 2 Binding Protein 2 (from UniProt Q7Z5L9 1-587)
